These results are taken from patent US20030181663A1.

By UniProt entry, the sequences of proteins in these tests, tags left out. Where a name states a change or a piece, a line headed by the entry shows the natural chain unless it says otherwise.
UniProt O76061: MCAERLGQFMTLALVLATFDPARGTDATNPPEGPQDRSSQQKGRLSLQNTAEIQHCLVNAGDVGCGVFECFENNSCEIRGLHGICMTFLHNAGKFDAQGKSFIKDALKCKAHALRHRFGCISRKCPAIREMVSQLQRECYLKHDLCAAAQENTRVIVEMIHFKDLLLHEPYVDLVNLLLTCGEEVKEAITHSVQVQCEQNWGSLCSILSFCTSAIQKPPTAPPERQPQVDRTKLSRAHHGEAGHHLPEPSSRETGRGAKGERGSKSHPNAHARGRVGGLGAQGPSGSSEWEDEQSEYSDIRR

The assay addresses human stanniocalcin-alpha (human) (UniProt O76061). The assay can be described thus: SDS-PAGE and autoradiography of 35S-labelled proteins from Sf9 cells infected with recombinant baculovirus.

No constants are given. Whether binding was seen depends on the method and setting. Some binding calls cover weakened binding; strength is not graded here.

With “human stanniocalcin-alpha (from UniProt O76061 25-302) (ligand)”, the binding entry is listed as “binds”.
